The text below walks through data of PubChem BioAssay AID248 (DTP/NCI, 2004).

This experiment deals with L1210 leukemia ip in BDF1 mice, survival T/C. In words: NCI In Vivo Anticancer Drug Screen. Data for tumor model L1210 Leukemia (intraperitoneal) in B6D2F1 (BDF1) mice. To be noted: T/C endpoint: mean survival time, higher T/C = longer survival.
Where [1] appears, read: dose: 22.0 mg/kg/injection, schedule: Q01DX001 (ip), vehicle: saline.

The list does not hold the whole screen: it gathers tests that were run many times, whatever their T/C, doses with no T/C, and many T/C values between a quarter and a half above the control. Other doses and runs of a compound stand elsewhere. T/C is the treated group as % of the vehicle group. Some doses have a count of surviving animals in place of a T/C: the source files T/C as zero there, which appears to mark a toxic dose or a test without result, not a measured value. Some survivor counts are full or nearly so, which does not show that the dose was tolerated: survival well below the control is almost never listed, so the zero probably covers shortened survival too. Survivors were counted at the toxicity check, usually on the fifth day, unless a day is given; later deaths do not show. Schedules are NCI's codes, read here as Q, the interval in days (D) or hours (H), X, the number of doses. Marks such as (2×) count equal records among those shown. Some doses were run more than once; the results are listed from low to high. For survival time, this PubChem deposit counts one and a half times the control or more as active, and values a quarter to a half above the control carry no call in these data; other NCI protocols may use other cut-offs. Some schedule codes hold Z or #, which are not explained here. Some T/C values carry the count of animals alive at the toxicity check (mostly the fifth day); without a count, all were alive then.

In the case of `CC1CN1CC(O)C(O)CN1CC1C` (stereo not given), the T/C is 130 % of control (dose: 0.14 mg/kg/injection, schedule: Q01DX015 (ip), vehicle: saline); 128 and 140 % of control (dose: 0.17 mg/kg/injection, schedule: Q01DX009 (ip), vehicle: saline); 147 % of control (dose: 0.22 mg/kg/injection, schedule: Q01DX015 (ip), vehicle: saline); 133 % of control (dose: 0.26 mg/kg/injection, schedule: Q01DX009 (ip), vehicle: saline); 142 % of control (dose: 0.4 mg/kg/injection, schedule: Q01DX009 (ip), vehicle: saline); 130 % of control (dose: 0.4 mg/kg/injection, schedule: Q04DX003 (ip), vehicle: saline). Besides, the T/C was 132 % of control (dose: 0.46 mg/kg/injection, schedule: Q01DX Z (ip), vehicle: saline); 133 and 139 % of control (dose: 0.5 mg/kg/injection, schedule: Q01DX015 (ip), vehicle: saline); 130 % of control (dose: 0.6 mg/kg/injection, schedule: Q01DX015 (ip), vehicle: saline); 130 % of control (dose: 0.71 mg/kg/injection, schedule: Q01DX001 (ip), vehicle: saline); 130 % of control (dose: 1.0 mg/kg/injection, schedule: Q01DX001 (ip), vehicle: saline); 148 and 149 % of control (dose: 1.0 mg/kg/injection, schedule: Q01DX015 (ip), vehicle: saline). Also, the T/C (dose: 1.6 mg/kg/injection, schedule: Q01DX001 (ip), vehicle: saline) was 145 % of control; the T/C (dose: 2.0 mg/kg/injection, schedule: Q01DX001 (ip), vehicle: saline) was 133 % of control; the T/C (dose: 2.5 mg/kg/injection, schedule: Q01DX001 (ip), vehicle: carboxymethylcellulose (CMC)) was 141 % of control; the T/C (dose: 2.5 mg/kg/injection, schedule: Q01DX001 (ip), vehicle: saline) was 142 % of control; the T/C (dose: 2.75 mg/kg/injection, schedule: Q01DX001 (ip), vehicle: saline) is 139 % of control; the T/C (dose: 3.0 mg/kg/injection, schedule: Q01DX001 (ip), vehicle: saline) is 144 % of control. Moreover, the T/C was 139 % of control (dose: 3.3 mg/kg/injection, schedule: Q04DX003 (ip), vehicle: saline); 148 % of control (dose: 4.0 mg/kg/injection, schedule: Q01DX015 (ip), vehicle: saline); 147 % of control (dose: 5.0 mg/kg/injection, schedule: Q04DX003 (ip), vehicle: saline); 142 % of control (dose: 6.0 mg/kg/injection, schedule: Q01DX015 (ip), vehicle: saline); 140 % of control (dose: 10.0 mg/kg/injection, schedule: Q04DX003 (ip), vehicle: saline); 127 % of control (dose: 20.0 mg/kg/injection, schedule: Q01DX001 (ip), vehicle: carboxymethylcellulose (CMC)). The T/C runs as follows: under setting [1], 100 % of control; (dose: 50.0 mg/kg/injection, schedule: Q01DX001 (ip), vehicle: carboxymethylcellulose (CMC)) 141 % of control; (dose: 93.0 micrograms/kg/injection, schedule: Q01DX015 (ip), vehicle: saline) 125 % of control; (dose: 140.0 micrograms/kg/injection, schedule: Q01DX015 (ip), vehicle: saline) 138 % of control; (dose: 315.0 micrograms/kg/injection, schedule: Q01DX001 (ip), vehicle: saline) 132 % of control; (dose: 473.0 micrograms/kg/injection, schedule: Q01DX001 (ip), vehicle: saline) 135 % of control. The survivor count (dose: 3.0 mg/kg/injection, schedule: Q01DX015 (ip), vehicle: saline) was 5 of 6 (2×); the survivor count (dose: 12.0 mg/kg/injection, schedule: Q01DX015 (ip), vehicle: saline) is 5 of 6 and 6 of 6; the survivor count (dose: 18.0 mg/kg/injection, schedule: Q01DX015 (ip), vehicle: saline) is given as 0 of 6; the survivor count (dose: 20.0 mg/kg/injection, schedule: Q01DX001 (ip), vehicle: saline) is listed as 2 of 6; the survivor count (dose: 20.0 mg/kg/injection, schedule: Q04DX003 (ip), vehicle: saline) is listed as 6 of 6; the survivor count under setting [1] is listed as 0 of 4, 1 of 4, 2 of 4. Besides, the survivor count reads like this: (dose: 27.0 mg/kg/injection, schedule: Q01DX015 (ip), vehicle: saline) 0 of 6; (dose: 30.0 mg/kg/injection, schedule: Q01DX001 (ip), vehicle: saline) 0 of 6; (dose: 33.0 mg/kg/injection, schedule: Q01DX001 (ip), vehicle: saline) 0 of 4 and 1 of 4; (dose: 44.0 mg/kg/injection, schedule: Q01DX001 (ip), vehicle: saline) 0 of 4; (dose: 45.0 mg/kg/injection, schedule: Q01DX001 (ip), vehicle: saline) 0 of 6; (dose: 50.0 mg/kg/injection, schedule: Q01DX001 (ip), vehicle: saline) 0 of 4 (2×). Further, the survivor count (dose: 60.0 mg/kg/injection, schedule: Q01DX001 (ip), vehicle: saline) is listed as 0 of 6; the survivor count (dose: 65.0 mg/kg/injection, schedule: Q01DX001 (ip), vehicle: saline) is on record as 0 of 6; the survivor count (dose: 75.0 mg/kg/injection, schedule: Q01DX001 (ip), vehicle: saline) was 0 of 4; the survivor count (dose: 100.0 mg/kg/injection, schedule: Q01DX001 (ip), vehicle: carboxymethylcellulose (CMC)) is listed as 0 of 4; the survivor count (dose: 100.0 mg/kg/injection, schedule: Q01DX001 (ip), vehicle: saline) was 0 of 4; the survivor count (dose: 120.0 mg/kg/injection, schedule: Q01DX001 (ip), vehicle: saline) is given as 0 of 6. For the same compound, the survivor count was 0 of 4 (dose: 200.0 mg/kg/injection, schedule: Q01DX001 (ip), vehicle: carboxymethylcellulose (CMC)); 0 of 4 (dose: 200.0 mg/kg/injection, schedule: Q01DX001 (ip), vehicle: saline); 0 of 4 (dose: 400.0 mg/kg/injection, schedule: Q01DX001 (ip), vehicle: carboxymethylcellulose (CMC)).
As to `Cc1c2ccncc2c(C)c2c1[nH]c1ccc(O)cc12`, the survivor count reads like this: (dose: 1.56 mg/kg/injection, schedule: Q01DX009 (ip), vehicle: saline with Tween-80) 5 of 6; (dose: 25.0 mg/kg/injection, schedule: Q01DX009 (ip), vehicle: saline with Tween-80) 4 of 6 and 5 of 6; (dose: 50.0 mg/kg/injection, schedule: Q01DX009 (ip), vehicle: saline with Tween-80) 3 of 6; (dose: 100.0 mg/kg/injection, schedule: Q04DX003 (ip), vehicle: saline with Tween-80) 2 of 6 and 5 of 6; (dose: 200.0 mg/kg/injection, schedule: Q04DX003 (ip), vehicle: saline with Tween-80) 1 of 6; (dose: 400.0 mg/kg/injection, schedule: Q04DX003 (ip), vehicle: saline with Tween-80) 0 of 6. Also, the T/C reads like this: (dose: 3.12 mg/kg/injection, schedule: Q01DX009 (ip), vehicle: saline with Tween-80) 127 % of control; (dose: 6.3 mg/kg/injection, schedule: Q01DX009 (ip), vehicle: saline with Tween-80) 137 % of control; (dose: 12.5 mg/kg/injection, schedule: Q01DX009 (ip), vehicle: saline with Tween-80) 130 % of control; (dose: 12.5 mg/kg/injection, schedule: Q04DX003 (ip), vehicle: saline with Tween-80) 127 % of control [5 of 6 alive]; (dose: 25.0 mg/kg/injection, schedule: Q04DX003 (ip), vehicle: saline with Tween-80) 135 % of control; (dose: 50.0 mg/kg/injection, schedule: Q04DX003 (ip), vehicle: saline with Tween-80) 125 % of control.
As for `Cc1ccc(-c2ccc3sc(C)[n+](C)c3c2)cc1`, the survivor count by setting is: (dose: 200.0 mg/kg/injection, schedule: Q04DX003 (ip), vehicle: saline) 6 of 6; (dose: 400.0 mg/kg/injection, schedule: Q04DX003 (ip), vehicle: saline) 0 of 6.
